From PubChem BioAssay AID1487 (National Center for Advancing Translational Sciences (NCATS), 2009)
The other results are listed elsewhere or left out. The main result of the screen is listed elsewhere. These columns were measured beside it and carry no call. Most of these compounds were active or inconclusive in the main read-out, so they are no random draw. Words in brackets tell the shape of the fitted curve; partial curves, single points and poor fits give uncertain potencies.

Test: qHTS Assay for Modulators of Lamin A Splicing
Details: HeLa LMNA splicing GFP/RFP minigene ratio, 48 h
Method in brief: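 S3 HeLa stable clones carrying a lamin A-EGFP splicing minigene plus DsRed2 were seeded at 600 cells/well in Opti-MEM with 2% FBS, pin-dosed and incubated 48 h at 37°C. Acumen cytometry (488 nm) gave the GFP/RFP total-intensity ratio.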

[1] = measured here: RFP viability control channel
[2] = measured here: GFP splicing reporter channel

| Structure (SMILES) | AC50 [1] | AC50 [2] |
| --- | --- | --- |
| Cc1sc2ncnc(N[C@@H](Cc3c[nH]c4ccccc34)C(=O)O)c2c1C | 0.631 µM [falling, full curve, poor fit] | – |
| NC(=O)NC(CC(=O)NCCc1ccc(S(N)(=O)=O)cc1)c1ccccc1Cl (stereo unspecified) | 4.47 µM [rising, full curve] | 0.01 µM [rising, full curve, poor fit] |
| O=c1oc2c(CN3CCN(CCO)CC3)c(O)ccc2cc1-c1ccccn1 | 0.447 µM [rising, full curve, poor fit] | 0.316 µM [rising, full curve] |
| O=C(N/N=C/C=C\c1ccco1)c1cccnc1 | 0.0112 µM [falling, full curve, poor fit] | – |
| CCN1C(=O)N[C@H](c2ccc(Br)cc2)C(C(C)=O)=C1C | – | 0.01 µM [falling, full curve, poor fit] |
| CCN(CC)c1ccc(NS(=O)(=O)c2ccc3c(c2)CCCN3C(C)=O)c(C)c1 | – | 35.5 µM [falling, single point] |
| CC(C)Cn1c(N)c(C(=O)COC(=O)CC23CC4CC(CC(C4)C2)C3)c(=O)n(C)c1=O | 2.82 µM [rising, full curve] | 20 µM [rising, single point] |
| Cc1cccc(N2CCN(C(=O)c3ccncc3)CC2C)c1 (stereo unspecified) | – | 35.5 µM [falling, single point] |
| CCc1ccc(N2CCn3c2nc2c3c(=O)n(Cc3cccc(C)c3)c(=O)n2C)cc1 | – | 1.12 µM [rising, full curve, poor fit] |
| CC1CC2=C(C(=O)O1)C(c1ccc(Cl)cc1)Nc1ccccc1N2 (stereo unspecified) | 1.41 µM [falling, partial curve] | 2.82 µM [falling, partial curve, poor fit] |
| CC1=CC(C)(C)Nc2ccc(OC(=O)C(Cc3ccccc3)N3C(=O)c4ccccc4C3=O)cc21 (stereo unspecified) | 11.2 µM [rising, partial curve] | 15.8 µM [rising, partial curve] |
| CN(CCC1CCCCO1)C(=O)CCc1nnc(CCCCc2ccccc2)o1 (stereo unspecified) | 1.41 µM [falling, full curve] | – |
| S=C(Nc1ccc2c(c1)OCO2)N1CCN(Cc2ccco2)CC1 | – | 0.0794 µM [rising, full curve, poor fit] |
| COc1cc(-c2nnc(CSc3nnc(Nc4ccc(C(C)C)cc4)s3)o2)cc(OC)c1OC | 17.8 µM [rising, partial curve, poor fit] | – |
| CCOC(=O)c1cnc2ccc(C(=O)OC)cc2c1Nc1ccc2c(c1)OCCO2 | 0.282 µM [falling, full curve, poor fit] | – |
| COC(=O)c1[nH]c2cccc(OC)c2c1NC(=O)CCN1CCSCC1 | – | 0.708 µM [rising, single point] |
| CC1(C)CC(N2CN(C3CCCCC3)CC2=O)CC(C)(C)N1 | 0.0126 µM [falling, full curve, poor fit] | – |
| COc1ccc(CCNc2oc(-c3ccc(OC)c(OC)c3)nc2C#N)cc1 | 35.5 µM [rising, single point] | – |
| Cc1cc(C(=O)N/N=C/c2cc(N=Nc3ccccc3)ccc2O)n[nH]1 | 0.355 µM [rising, full curve] | 0.794 µM [falling, full curve, poor fit] |

Ordered by number of heavy atoms (descending): some entries from above.

| Structure (SMILES) | AC50 [1] | AC50 [2] |
| --- | --- | --- |
| CC1=CC(C)(C)Nc2ccc(OC(=O)C(Cc3ccccc3)N3C(=O)c4ccccc4C3=O)cc21 (stereo unspecified) | 11.2 µM [rising, partial curve] | 15.8 µM [rising, partial curve] |
| COc1cc(-c2nnc(CSc3nnc(Nc4ccc(C(C)C)cc4)s3)o2)cc(OC)c1OC | 17.8 µM [rising, partial curve, poor fit] | – |
| CCc1ccc(N2CCn3c2nc2c3c(=O)n(Cc3cccc(C)c3)c(=O)n2C)cc1 | – | 1.12 µM [rising, full curve, poor fit] |
| CCOC(=O)c1cnc2ccc(C(=O)OC)cc2c1Nc1ccc2c(c1)OCCO2 | 0.282 µM [falling, full curve, poor fit] | – |
| CN(CCC1CCCCO1)C(=O)CCc1nnc(CCCCc2ccccc2)o1 (stereo unspecified) | 1.41 µM [falling, full curve] | – |
| NC(=O)NC(CC(=O)NCCc1ccc(S(N)(=O)=O)cc1)c1ccccc1Cl (stereo unspecified) | 4.47 µM [rising, full curve] | 0.01 µM [rising, full curve, poor fit] |
| Cc1sc2ncnc(N[C@@H](Cc3c[nH]c4ccccc34)C(=O)O)c2c1C | 0.631 µM [falling, full curve, poor fit] | – |
| S=C(Nc1ccc2c(c1)OCO2)N1CCN(Cc2ccco2)CC1 | – | 0.0794 µM [rising, full curve, poor fit] |
| CC1(C)CC(N2CN(C3CCCCC3)CC2=O)CC(C)(C)N1 | 0.0126 µM [falling, full curve, poor fit] | – |
| CCN1C(=O)N[C@H](c2ccc(Br)cc2)C(C(C)=O)=C1C | – | 0.01 µM [falling, full curve, poor fit] |
| O=C(N/N=C/C=C\c1ccco1)c1cccnc1 | 0.0112 µM [falling, full curve, poor fit] | – |

Following part:

| Structure (SMILES) | AC50 [1] | AC50 [2] |
| --- | --- | --- |
| O=C(c1ccc2c(c1)OCCO2)N(Cc1cccnc1)c1nc2ccc(F)cc2s1 | 7.08 µM [rising, partial curve, poor fit] | 0.355 µM [rising, full curve, poor fit] |
| CCC(=O)NC1=C(Cl)C(=O)C(NC(=O)CC)=C(Cl)C1=O | 7.08 µM [falling, full curve] | – |
| COc1ccc(-n2c(C)cc(/C=N/Nc3nc(N4CCOCC4)nc(N4CCOCC4)n3)c2C)cc1 | 31.6 µM [rising, single point] | – |
| N=C1S/C(=C\c2cccc3ccccc23)C(=O)N1c1ccc(F)cc1 | 35.5 µM [falling, single point] | 12.6 µM [falling, partial curve] |
| CC1CN(C(=O)N2CCC(C(=O)NC3CCCCCC3)CC2)c2cc(Cl)ccc2O1 (stereo unspecified) | 20 µM [rising, single point] | 14.1 µM [rising, partial curve] |
| O=C(NC(=S)NCCc1ccc(Cl)cc1)c1ccco1 | 35.5 µM [rising, single point] | 12.6 µM [rising, single point] |
| CCc1ccccc1-n1c(-c2ccncc2)n[nH]c1=S | 2.24 µM [rising, partial curve, poor fit] | – |
| Cc1cc(C)nc(SC2CCCCC2NS(=O)(=O)c2ccc(Cl)cc2)n1 (stereo unspecified) | 17.8 µM [rising, single point] | – |
| c1cncc(Oc2cccc(Oc3cccnc3)c2)c1 | 35.5 µM [rising, single point] | – |
| OC(COc1ccc2ccccc2c1Br)Cn1ccnc1 (stereo unspecified) | 22.4 µM [rising, single point] | – |
| COC(=O)c1ccc2nc(Nc3nc4c(F)cc(F)cc4s3)sc2c1 | 0.126 µM [rising, full curve] | – |
| Cc1ccc(OCCn2cnc3c(N)ncnc32)cc1 | 12.6 µM [rising, partial curve] | 0.01 µM [rising, full curve, poor fit] |
| O=C(O)c1ccccc1C(=O)NCCc1ccc(Cl)cc1 | 0.02 µM [falling, full curve, poor fit] | – |
| COc1ccc(OC)c(Nc2ncnc3c2nc2n3CCCC2)c1 | 10 µM [rising, partial curve] | – |
| Cc1cccc(NC(=O)c2cc3ccccc3o2)c1 | 3.98 µM [rising, single point] | – |
| O=C(/C=C/c1ccccc1)NC(=S)Nc1ccccc1C(=O)NC1CCCCC1 | 14.1 µM [falling, single point] | – |
| Nc1c(-c2ccccc2)c(CSc2nc3ccccc3[nH]2)nn1-c1cccc(C(=O)O)c1 | 0.00355 µM [falling, full curve, poor fit] | – |
| COc1cc(O)c2c(=O)c3c(OC)c(O)ccc3oc2c1 | 15.8 µM [falling, partial curve] | 25.1 µM [falling, single point] |
| Cn1c(COc2ccccc2)nnc1SCCN1CCOCC1 | 0.112 µM [falling, full curve, poor fit] | – |

| Structure (SMILES) | AC50 [1] | AC50 [2] |
| --- | --- | --- |
| COc1ccc(N2CCN(S(=O)(=O)c3ccc(OC)cc3)CC2)cc1 | 11.2 µM [rising, partial curve, poor fit] | – |
| O=C(CN1CCCN(S(=O)(=O)c2ccc(Br)cc2)CC1)Nc1ccc2c(c1)OCO2 | 35.5 µM [rising, single point] | 35.5 µM [rising, single point] |
| O=C(CN1C(=O)CCC1=O)NNc1ccc2ccccc2c1 | 2.82 µM [rising, partial curve] | 3.16 µM [rising, single point] |
| COc1ccccc1-c1nc(Nc2ccncc2)c2ccccc2n1 | – | 7.94 µM [falling, partial curve] |
| Cc1ccc(C(=O)/C=C/C(=O)O)cc1 | 11.2 µM [rising, partial curve] | 35.5 µM [falling, single point] |
| O=C(Nc1cccc(C(=O)N2CCN(c3cccc(Cl)c3)CC2)c1)c1nsc2ccccc12 | 11.2 µM [falling, single point] | – |
| COc1ccc(CN2CCN(CCCCOc3ccc(Cl)cc3)CC2)c(OC)c1OC | 5.62 µM [rising, partial curve, poor fit] | – |
| CCOC(=O)N1CCC(NC(=O)c2ccc3c(c2)N(Cc2ccc(F)cc2)CCS3)CC1 | 10 µM [rising, partial curve] | – |
| CCOC(=O)/C(=N/Nc1ccc(Cl)cc1)Sc1nnnn1-c1ccc(C)cc1 | 10 µM [rising, partial curve, poor fit] | – |
| O=C(Nc1ccc(Cl)c(Cl)c1)Nc1ccc(N2CCCC2)c(S(=O)(=O)Nc2ccccc2Cl)c1 | 5.62 µM [rising, single point] | 5.62 µM [rising, single point] |
| CN1CCN(C=NC2=NN(c3cccc(C(F)(F)F)c3)CC2)CC1 | 0.0126 µM [rising, full curve, poor fit] | – |
| COc1cc2[nH]c(=S)nc(Nc3ccc(NC(C)=O)cc3)c2cc1OC | 22.4 µM [falling, single point] | 31.6 µM [falling, partial curve] |
| Cc1[nH]c2ccccc2c1C(c1ccncc1)N1CCC(C)CC1 (stereo unspecified) | – | 31.6 µM [falling, single point] |
| O=C(Nc1ccccc1)Nc1snnc1C(=O)Nc1cccc(O)c1 | 39.8 µM [falling, partial curve] | – |
| O=C(/C=C/c1ccccc1)N/C(=C/c1ccccc1)C(=O)NCCO | 35.5 µM [falling, single point] | 35.5 µM [falling, single point] |
| CCc1nc(SCC(=O)N2CCN(c3ccccc3)CC2)c2oc3ccccc3c2n1 | 17.8 µM [falling, partial curve] | 15.8 µM [falling, single point] |
| Nc1c(C(=O)Nc2ccc3c(c2)OCCO3)nnn1CCc1ccccc1 | 5.62 µM [rising, single point] | – |
| CCOc1ccccc1NC(=O)c1c(Br)cnn1C | 11.2 µM [falling, partial curve, poor fit] | 8.91 µM [falling, partial curve, poor fit] |
